Earlier results, collected in patent publication US20240238261A1, “METHOD OF TREATING ESSENTIAL TREMOR” (Cavion, Inc., priority 2021, published 2024).
For at least one compound, name, drawing or mass did not settle the structure.

Legend:
all three Cav3 isoforms = details: voltage-activated calcium channel (Cav) antagonist
[1] = test system: patients with essential tremor; details: 95 patients with essential tremor, vs placebo
[2] = test system: other ion channel targets; details: versus Cav3

## CC(C)c1ccc(CC(=O)N[C@H](C)c2ccc(OCC(F)(F)F)cn2)cc1 [CX-8998, (R)-2-(4-Isopropylphenyl)-N-(1-(5-(2,2,2-Trifluoroethoxy)pyridin-2-yl)ethyl)acetamide]
Nonclinical models
  absence seizures: dose-dependently reduce
  pain: dose-dependently reduce
  tremor: dose-dependently reduce
All three Cav3 isoforms
  potency against all three Cav3 isoforms: low nanomolar potency
[1]; P=. 001
  Clinician Global Impression of Improvement: Significant improvements
[1]; P=. 007
  TETRAS total score: Significant improvements
[1]; P=. 017
  investigator-rated TETRAS Performance Subscale: Significant improvements
[1]; P=. 049
  TETRAS-Activities of Daily Living (TETRAS-ADL): Significant improvements
[2]
  selectivity against other ion channel targets: > 100 fold
